Reference: article doi:10.1101/789222
Results are given in words; binding and its absence hold for the method and conditions named. In cells and extracts the contact can be indirect. Some entries that bind do so weakly or less than the wild type.

Protein sequences, listed by entry. Tags and fused reporters are not part of them. Residues count along the entry.
UniProt P63165, residues 1-97: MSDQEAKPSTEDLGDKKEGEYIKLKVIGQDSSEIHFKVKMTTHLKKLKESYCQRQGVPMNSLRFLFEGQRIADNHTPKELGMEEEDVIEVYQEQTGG
UniProt Q00987: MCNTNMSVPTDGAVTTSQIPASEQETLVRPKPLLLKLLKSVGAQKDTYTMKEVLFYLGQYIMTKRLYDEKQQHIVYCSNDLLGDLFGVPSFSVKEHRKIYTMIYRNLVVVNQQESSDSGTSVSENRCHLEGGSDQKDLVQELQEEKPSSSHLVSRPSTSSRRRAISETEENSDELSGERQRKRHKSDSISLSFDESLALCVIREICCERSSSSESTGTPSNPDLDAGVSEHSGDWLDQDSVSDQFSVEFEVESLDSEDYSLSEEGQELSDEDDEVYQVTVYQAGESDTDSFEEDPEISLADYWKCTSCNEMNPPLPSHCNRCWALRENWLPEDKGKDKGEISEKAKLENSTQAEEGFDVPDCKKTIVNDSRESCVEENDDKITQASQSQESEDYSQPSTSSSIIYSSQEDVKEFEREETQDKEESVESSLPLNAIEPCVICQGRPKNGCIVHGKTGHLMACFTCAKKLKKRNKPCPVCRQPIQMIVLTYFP

Key:
[1] = biological target: T1, Period2 (PER2), endogenous (human (endogenous in U2OS)) (UniProt O15055); assay: proximity ligation
T1 sequence: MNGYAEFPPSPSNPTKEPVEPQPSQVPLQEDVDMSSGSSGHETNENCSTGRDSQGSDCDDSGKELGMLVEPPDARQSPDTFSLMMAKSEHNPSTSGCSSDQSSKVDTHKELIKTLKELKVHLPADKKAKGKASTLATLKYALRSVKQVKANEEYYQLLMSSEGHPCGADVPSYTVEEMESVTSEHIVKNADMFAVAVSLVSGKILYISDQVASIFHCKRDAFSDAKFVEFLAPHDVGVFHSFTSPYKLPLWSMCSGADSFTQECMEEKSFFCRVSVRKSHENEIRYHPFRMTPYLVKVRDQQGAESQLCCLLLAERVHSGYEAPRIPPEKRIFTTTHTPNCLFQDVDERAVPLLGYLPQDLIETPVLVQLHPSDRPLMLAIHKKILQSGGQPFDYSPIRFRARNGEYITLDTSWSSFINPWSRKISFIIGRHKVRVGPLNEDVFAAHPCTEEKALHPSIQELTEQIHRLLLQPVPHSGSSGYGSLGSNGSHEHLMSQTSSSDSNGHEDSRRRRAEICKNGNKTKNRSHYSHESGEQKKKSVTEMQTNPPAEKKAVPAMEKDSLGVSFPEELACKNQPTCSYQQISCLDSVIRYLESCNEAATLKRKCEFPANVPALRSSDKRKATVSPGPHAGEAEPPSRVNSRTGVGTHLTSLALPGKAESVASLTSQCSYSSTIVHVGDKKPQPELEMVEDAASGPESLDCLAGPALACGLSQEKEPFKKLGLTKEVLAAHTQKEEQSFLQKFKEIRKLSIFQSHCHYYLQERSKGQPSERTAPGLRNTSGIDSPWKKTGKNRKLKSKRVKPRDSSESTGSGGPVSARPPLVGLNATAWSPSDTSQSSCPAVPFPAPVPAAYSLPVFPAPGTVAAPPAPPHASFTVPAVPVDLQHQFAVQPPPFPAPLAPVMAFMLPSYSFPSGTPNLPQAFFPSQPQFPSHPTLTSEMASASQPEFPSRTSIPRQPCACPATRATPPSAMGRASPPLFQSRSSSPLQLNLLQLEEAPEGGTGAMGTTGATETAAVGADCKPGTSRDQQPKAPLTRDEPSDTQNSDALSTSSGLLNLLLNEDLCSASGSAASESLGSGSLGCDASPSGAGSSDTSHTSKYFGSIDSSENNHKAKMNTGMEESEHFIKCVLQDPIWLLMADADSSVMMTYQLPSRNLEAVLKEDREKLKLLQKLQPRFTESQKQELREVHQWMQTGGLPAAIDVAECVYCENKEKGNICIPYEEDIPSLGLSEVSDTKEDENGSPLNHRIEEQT

[2] = biological target: T1, Period2 (PER2), endogenous (human (endogenous in U2OS)); assay: co-IP

Substance | binding [1] | binding [2]
SUMO1, endogenous (from UniProt P63165 1-97) | binds | 
MDM2, endogenous (from UniProt Q00987 1-491) |  | binds
